Measured values: PubChem BioAssay AID1347076 (National Center for Advancing Translational Sciences (NCATS), 2019)
Hit rate of the full screen: of about 400,000 compounds, about 13,000 (3.2%) were called active. The shares of active, inactive and inconclusive entries below differ from those in the screen. The call rests on the fitted dose curve; in most records, active means well fitted cell-killing curve with a large enough effect; inconclusive means small, poorly fitted or top-dose-only effect, or effect the other way; inactive means flat fitted curve, though single readings scatter. Potencies beside an inconclusive call are fits to weak or partial responses and may not hold up.

Assay: qHTS assay for MDR1-selective chemotherapeutics: Primary screen using the drug-selected MDR subline cells KB-V1; further: nearly all actives have a fitted effect of over 60% in size
Conditions: KB-V1 MDR cells viability, CellTiter-Glo, 72 h; activity change, negative = cytotoxicity: at 46.1 µM (top of the series)
Method in brief: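 In this primary screen, KB-V1 cells overexpressing P-gp are incubated with library compounds (lowest to highest concentration) for 72 h at 37 degrees C before a luminescent ATP viability read.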
On the % scale 0 is the no-effect control and ±100 the full control effect; potency means the concentration at half of the fitted maximal effect.

| Compound | Potency | activity change, negative = cytotoxicity |
| --- | --- | --- |
| CSC1=NC=C(C#N)C2=NC(c3c(Cl)cccc3Cl)NN12 (centres undefined) | inactive |  |
| NS(=O)(=O)c1ccc(NC(=O)CSc2ccc3ccccc3n2)cc1 | inconclusive: 1.46 µM [rising, full curve, poor fit] |  |
| CC1CCCCC1NC(=S)Nc1cccc(S(=O)(=O)N(C)C)c1 (centres undefined) | inconclusive: 25.9 µM [cytotoxic, partial curve, poor fit] |  |
| COc1ccc(O)c(C(=O)c2cc(C(=O)NCCc3ccccc3)c(=O)n(CCc3ccccc3)c2)c1 | active: 2.06 µM |  |
| COc1cc(OC)c(-c2oc3ccccc3c(=O)c2O)c(OC)c1 | inconclusive: 3.66 µM [cytotoxic, full curve, poor fit] |  |
| O=C(Nc1nc2ccccc2[nH]1)C1CC1 | active: 10.3 µM |  |
| CCNC(=S)NN=C1CCC(C(C)(C)C)CC1 (centres undefined) | inactive |  |
| Cc1cccc(C2=NN(c3ccc(Br)cc3)[C@@H](C(=O)N3CCOC3=O)[C@@H]2c2ccccc2)c1 | inactive |  |
| c1ccc(COc2cccc(CNCc3cccnc3)c2)cc1 | inconclusive: 20.6 µM [cytotoxic, partial curve] |  |
| Cc1csc2nc(-c3ccc(NS(=O)(=O)c4cc(F)ccc4F)cc3)cn12 | inconclusive: 29.1 µM [rising, single point] |  |
| COc1cc2c(C)nc(C)c(C#N)c2cc1OC | inconclusive: 4.61 µM [cytotoxic, full curve] |  |
| CCOC(=O)c1oc2nc(CC(C)C)c3c(c2c1N)CCC3 | inconclusive: 16.4 µM [cytotoxic, partial curve, poor fit] |  |
| Cc1ccccc1/C=C(\C#N)c1nc(-c2ccc(Cl)cc2)cs1 | inconclusive: 3.66 µM [rising, single point] |  |
| Cc1csc(NC(=O)CSc2nc(=O)[nH]c3c2CCCC3)n1 |  | inconclusive: 92.8% |
| Cc1ccc(-c2nn3c(C)nnc3c3ccccc23)cc1S(=O)(=O)NCc1ccco1 | active: 14.6 µM |  |
| COC(=O)C1=CN(c2cccc(OCc3ccccc3)c2)C(N)=C(C#N)C1c1cccc(F)c1 (centres undefined) | inconclusive: 14.6 µM [cytotoxic, single point] |  |
| CC1(C)Cc2cccc(OCC(O)CN3CCN(c4ccccn4)CC3)c2O1 (centres undefined) | inconclusive: 9.2 µM [cytotoxic, partial curve] |  |
| COc1ccc(CN(C)[C@H]2C[C@H]3c4[nH]c5ccccc5c4CCN3C[C@H]2[C@H](C)O)cc1 | inconclusive: 18.4 µM [rising, single point] |  |
| COCCN(C(=O)COC(=O)C12CC3CC(CC(C3)C1)C2)c1c(N)n(Cc2ccccc2)c(=O)[nH]c1=O | inconclusive: 29.1 µM [rising, single point] |  |

A few values from the entries so far.
Under Potency, Cc1ccc(-c2nn3c(C)nnc3c3ccccc23)cc1S(=O)(=O)NCc1ccco1 has active: 14.6 µM
Under Potency, COC(=O)C1=CN(c2cccc(OCc3ccccc3)c2)C(N)=C(C#N)C1c1cccc(F)c1 (centres undefined) has inconclusive: 14.6 µM [cytotoxic, single point]
